Experimental data from ChEMBL document CHEMBL4316593 (Eur J Med Chem, 2019).
This continues a long series; more values of the same kind are listed elsewhere.

Legend:
Format in all cases: cell-based
Settings in all cases: U-87MG ATCC
[1] = Inhibition of RTK/PI3K/AKT/mTOR signaling in human U87 cells assessed as down regulation of SECISBP2L gene expression at cytotoxic IC50 measured after 48 hrs relative to control
[2] = Inhibition of RTK/PI3K/AKT/mTOR signaling in human U87 cells assessed as down regulation of TTI1 gene expression at cytotoxic IC50 measured after 48 hrs relative to control
[3] = Inhibition of RTK/PI3K/AKT/mTOR signaling in human U87 cells assessed as down regulation of KIF23 gene expression at cytotoxic IC50 measured after 48 hrs relative to control
[4] = Inhibition of RTK/PI3K/AKT/mTOR signaling in human U87 cells assessed as down regulation of COQ10B gene expression at cytotoxic IC50 measured after 48 hrs relative to control
[5] = Inhibition of RTK/PI3K/AKT/mTOR signaling in human U87 cells assessed as down regulation of SGMS2 gene expression at cytotoxic IC50 measured after 48 hrs relative to control
[6] = Inhibition of RTK/PI3K/AKT/mTOR signaling in human U87 cells assessed as up regulation of SERBP1 gene expression at cytotoxic IC50 measured after 48 hrs relative to control
[7] = Inhibition of RTK/PI3K/AKT/mTOR signaling in human U87 cells assessed as up regulation of ATPase phospholipid transporting 11A gene expression at cytotoxic IC50 measured after 48 hrs relative to control
[8] = Inhibition of RTK/PI3K/AKT/mTOR signaling in human U87 cells assessed as up regulation of CDA gene expression at cytotoxic IC50 measured after 48 hrs relative to control
[9] = Inhibition of RTK/PI3K/AKT/mTOR signaling in human U87 cells assessed as down regulation of AP1B1 gene expression at cytotoxic IC50 measured after 48 hrs relative to control
[10] = Inhibition of RTK/PI3K/AKT/mTOR signaling in human U87 cells assessed as up regulation of TNFRSF18 gene expression at cytotoxic IC50 measured after 48 hrs relative to control
[11] = Inhibition of RTK/PI3K/AKT/mTOR signaling in human U87 cells assessed as up regulation of RAP2B gene expression at cytotoxic IC50 measured after 48 hrs relative to control
[12] = Inhibition of RTK/PI3K/AKT/mTOR signaling in human U87 cells assessed as up regulation of EPH receptor B4 gene expression at cytotoxic IC50 measured after 48 hrs relative to control
[13] = Inhibition of RTK/PI3K/AKT/mTOR signaling in human U87 cells assessed as up regulation of HDLBP gene expression at cytotoxic IC50 measured after 48 hrs relative to control
[14] = Inhibition of RTK/PI3K/AKT/mTOR signaling in human U87 cells assessed as down regulation of TNPO1 gene expression at cytotoxic IC50 measured after 48 hrs relative to control
[15] = Inhibition of RTK/PI3K/AKT/mTOR signaling in human U87 cells assessed as down regulation of GNG5 gene expression at cytotoxic IC50 measured after 48 hrs relative to control
[16] = Inhibition of RTK/PI3K/AKT/mTOR signaling in human U87 cells assessed as down regulation of ACTR3 gene expression at cytotoxic IC50 measured after 48 hrs relative to control
[17] = Inhibition of RTK/PI3K/AKT/mTOR signaling in human U87 cells assessed as up regulation of TMEM52 gene expression at cytotoxic IC50 measured after 48 hrs relative to control
[18] = Inhibition of RTK/PI3K/AKT/mTOR signaling in human U87 cells assessed as up regulation of FHAD1 gene expression at cytotoxic IC50 measured after 48 hrs relative to control
[19] = Inhibition of RTK/PI3K/AKT/mTOR signaling in human U87 cells assessed as down regulation of RABGGTB gene expression at cytotoxic IC50 measured after 48 hrs relative to control
[20] = Inhibition of RTK/PI3K/AKT/mTOR signaling in human U87 cells assessed as down regulation of LAMC2 gene expression at cytotoxic IC50 measured after 48 hrs relative to control
[21] = Inhibition of RTK/PI3K/AKT/mTOR signaling in human U87 cells assessed as up regulation of FXYD3 gene expression at cytotoxic IC50 measured after 48 hrs relative to control
[22] = Inhibition of RTK/PI3K/AKT/mTOR signaling in human U87 cells assessed as down regulation of PSMD2 gene expression at cytotoxic IC50 measured after 48 hrs relative to control
[23] = Inhibition of RTK/PI3K/AKT/mTOR signaling in human U87 cells assessed as up regulation of PGK1 gene expression at cytotoxic IC50 measured after 48 hrs relative to control
[24] = Inhibition of RTK/PI3K/AKT/mTOR signaling in human U87 cells assessed as up regulation of ninjurin 1 gene expression at cytotoxic IC50 measured after 48 hrs relative to control
[25] = Inhibition of RTK/PI3K/AKT/mTOR signaling in human U87 cells assessed as down regulation of PIWIL2 gene expression at cytotoxic IC50 measured after 48 hrs relative to control
[26] = Inhibition of RTK/PI3K/AKT/mTOR signaling in human U87 cells assessed as down regulation of ABHD12 gene expression at cytotoxic IC50 measured after 48 hrs relative to control
[27] = Inhibition of RTK/PI3K/AKT/mTOR signaling in human U87 cells assessed as down regulation of IFRD1 gene expression at cytotoxic IC50 measured after 48 hrs relative to control
[28] = Inhibition of RTK/PI3K/AKT/mTOR signaling in human U87 cells assessed as down regulation of HSPE1 gene expression at cytotoxic IC50 measured after 48 hrs relative to control
[29] = Inhibition of RTK/PI3K/AKT/mTOR signaling in human U87 cells assessed as down regulation of HNRNPH3 gene expression at cytotoxic IC50 measured after 48 hrs relative to control
[30] = Inhibition of RTK/PI3K/AKT/mTOR signaling in human U87 cells assessed as up regulation of family with sequence similarity 210 member A gene expression at cytotoxic IC50 measured after 48 hrs relative to control
[31] = Inhibition of RTK/PI3K/AKT/mTOR signaling in human U87 cells assessed as up regulation of zinc fingers and homeoboxes 2 gene expression at cytotoxic IC50 measured after 48 hrs relative to control
[32] = Inhibition of RTK/PI3K/AKT/mTOR signaling in human U87 cells assessed as down regulation of PAG1 gene expression at cytotoxic IC50 measured after 48 hrs relative to control

CC(=O)C(=NNc1ccccc1C#N)C(C)=O
log2FC [1]: -0.692
log2FC [2]: -1.01
log2FC [3]: -0.629
log2FC [4]: -0.878
log2FC [5]: -1.21
log2FC [6]: 0.462
log2FC [7]: 0.909
log2FC [8]: 2.35
log2FC [9]: -1.07
log2FC [10]: 1.87
log2FC [11]: 0.641
log2FC [12]: 1.27
log2FC [13]: 0.435
log2FC [14]: -1.12
log2FC [15]: -0.537
log2FC [16]: -0.461
log2FC [17]: 1.92
log2FC [18]: 2.01
log2FC [19]: -0.414
log2FC [20]: -1.47
log2FC [21]: 2.8
log2FC [22]: -1.26
log2FC [23]: 1.94
log2FC [24]: 0.818
log2FC [25]: -3.23
log2FC [26]: -0.624
log2FC [27]: -0.945
log2FC [28]: -0.651
log2FC [29]: -0.581
log2FC [30]: 1.01
log2FC [31]: 1.31
log2FC [32]: -1.84
